Data as given in paper doi:10.1101/2025.07.23.666473.

B1: HDAC6 (enzyme, UniProt Q9Z2V5 1-1149)
chain: MTSTGQDSSTRQRKSRHNPQSPLQESSATLKRGGKKCAVPHSSPNLAEVKKKGKMKKLSQPAEEDLVVGLQGLDLNPETRVPVGTGLVFDEQLNDFHCLWDDSFPESPERLHAIREQLILEGLLGRCVSFQARFAEKEELMLVHSLEYIDLMETTQYMNEGELRVLAETYDSVYLHPNSYSCACLATGSVLRLVDALMGAEIRNGMAVIRPPGHHAQHNLMDGYCMFNHLAVAARYAQKKHRIQRVLIVDWDVHHGQGTQFIFDQDPSVLYFSIHRYEHGRFWPHLKASNWSTIGFGQGQGYTINVPWNQTGMRDADYIAAFLHILLPVASEFQPQLVLVAAGFDALHGDPKGEMAATPAGFAHLTHLLMGLAGGKLILSLEGGYNLRALAKGVSASLHTLLGDPCPMLESCVVPCASAQTSIYCTLEALEPFWEVLERSVETQEEDEVEEAVLEEEEEEGGWEATALPMDTWPLLQNRTGLVYDEKMMSHCNLWDNHHPETPQRILRIMCHLEEVGLAARCLILPARPALDSELLTCHSAEYVEHLRTTEKMKTRDLHREGANFDSIYICPSTFACAKLATGAACRLVEAVLSGEVLNGIAVVRPPGHHAEPNAACGFCFFNSVAVAARHAQIIAGRALRILIVDWDVHHGNGTQHIFEDDPSVLYVSLHRYDRGTFFPMGDEGASSQVGRDAGIGFTVNVPWNGPRMGDADYLAAWHRLVLPIAYEFNPELVLISAGFDAAQGDPLGGCQVTPEGYAHLTHLLMGLAGGRIILILEGGYNLASISESMAACTHSLLGDPPPQLTLLRPPQSGALVSISEVIQVHRKYWRSLRLMKMEDKEECSSSRLVIKKLPPTASPVSAKEMTTPKGKVPEESVRKTIAALPGKESTLGQAKSKMAKAVLAQGQSSEQAAKGTTLDLATSKETVGGATTDLWASAAAPENFPNQTTSVEALGETEPTPPASHTNKQTTGASPLQGVTAQQSLQLGVLSTLELSREAEEAHDSEEGLLGEAAGGQDMNSLMLTQGFGDFNTQDVFYAVTPLSWCPHLMAVCPIPAAGLDVSQPCKTCGTVQENWVCLTCYQVYCSRYVNAHMVCHHEASEHPLVLSCVDLSTWCYVCQAYVHHEDLQDVKNAAHQNKFGEDMPHSH
B2: cavin-2 (protein, UniProt Q63918 1-418)
chain: MGEDAAQAEKFQHPNTDMLQEKPSSPSPMPSSTPSPSLNLGSTEEAIRDNSQVNAVTVHTLLDKLVNMLDAVRENQHNMEQRQINLEGSVKGIQNDLTKLSKYQASTSNTVSKLLEKSRKVSAHTRAVRERLERQCVQVKRLENNHAQLLRRNHFKVLIFQEESEIPASVFVKEPVPSAAEGKEELADENKSLEETLHNVDLSSDDELPRDEEALEDSAEEKMEESRAEKIKRSSLKKVDSLKKAFSRQNIEKKMNKLGTKIVSVERREKIKKSLTPNHQKASSGKSSPFKVSPLSFGRKKVREGESSVENETKLEDQMQEDREEGSFTEGLSEASLPSGLMEGSAEDAEKSARRGNNSAVGSNADLTIEEDEEEEPVALQQAQQVRYESGYMLNSEEMEEPSEKQVQPAVLHVDQTA
B3: cavin-4 (protein, UniProt A2AMM0 1-362)
chain: MEHNGSASNAGKIHQNRLSSVTEDEDQDAALTIVTVLDRVASVVDSVQASQKRIEERHREMGNAIKSVQIDLLKLSQSHSNTGYVVNKLFEKTRKVSAHIKDVKARVEKQQVRVTKVETKQEEIMKKNKFRVVIFQEDIPCPASLSVVKDRSLPENQEEAEEVFDPPIELSSDEEYYVEESRSARLRKSGKEHIDHIKKAFSRENMQKTRQTLDKKVSGIRTRIVTPERRERLRQSGERLRQSGERLRQSGERFKKSISSAAPSKEAFKIRSLRKAKDPKAEGQEVDRGMGVDIISGSLALGPIHEFHSDEFSETEKEVTKGGYSPQEGGDPPTPEPLKVTFKPQVRVEDDESLLLELKQSS

molecular target: TurboID-hFGF13VY (human); assay: proximity labelling

With B1 as the binder, how does the binding read?
The binding was “binds”.

How did the binding turn out when B2 was run?
Its binding is “binds”.

B3 was tested. Which binding did it give?
Its binding is “binds”.

No constants are given. Whether binding was seen depends on the method and setting. Binding seen in cells or lysates may run through a third protein. These calls come from enrichment with a bait or labelling near it, and not all partners need be listed.
